Over roughly 33,000 sequences, “E-score (-0.5 to 0.5)” has its median near -0.0034; the highest 2% begin near 0.25. Some of the results follow.
biological target: T1, Yap3 (UniProt P38749); assay: PBM E-score (8-mer binding enrichment) (E-score (-0.5 to 0.5)); higher = stronger / more preferred TF binding; settings: protein concentration: 100 nM; construct: GST-full length
T1 sequence: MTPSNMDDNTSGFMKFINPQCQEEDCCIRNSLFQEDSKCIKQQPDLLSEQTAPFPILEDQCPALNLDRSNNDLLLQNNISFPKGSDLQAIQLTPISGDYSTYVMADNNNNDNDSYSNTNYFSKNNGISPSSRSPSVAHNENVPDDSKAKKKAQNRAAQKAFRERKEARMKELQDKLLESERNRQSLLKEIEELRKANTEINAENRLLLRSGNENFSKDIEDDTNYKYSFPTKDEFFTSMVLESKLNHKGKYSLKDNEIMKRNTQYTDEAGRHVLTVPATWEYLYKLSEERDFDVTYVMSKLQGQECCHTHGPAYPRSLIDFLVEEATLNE
Procedure, shortened: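 Yeast transcription factors carrying a GST tag, as full-length proteins or DNA-binding domains, were produced by PURExpress in vitro transcription/translation. About 100-200 nM protein was applied to universal all-10-mer Agilent arrays, double-stranded by primer extension on fresh or once-stripped slides. Bound protein was detected with fluorescent anti-GST, and scans were normalised with masliner. The Universal PBM Analysis Suite gave each ungapped eight-base word, pooled with its reverse complement, an E-score, a modified Wilcoxon-Mann-Whitney statistic.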

Sequence | PBM E-score
ACCTACTG | 0.0748
ACTGCTGG | -0.268
CGTGCACC | -0.0988
GATCACCC | -0.0647
TCCTGTAA | 0.127
ACACCTGC | 0.0833
ATGTATTC | 0.0226
ACAATTCA | 0.113
CCGTGGAC | -0.292
CACAAACG | 0.119
GTCCGAAC | -0.171
AGGGGCAC | -0.217
CGCGTATA | 0.00867
CGGATTAA | 0.0124
CACCTCCG | -0.0971
CACTAGAA | -0.00798
CGAATTTC | 0.298
CCTTTGGC | -0.141
ATCTAGCG | -0.108
AGTGGACA | 0.0206
AGTTCAGG | -0.125
CGGGATAA | 0.0852
TCCAGCGA | 0.0186
AACAACTA | 0.0618
CACGGGCC | -0.248

Sequence | PBM E-score
TAGAACAA | -0.016
CACGACTA | -0.101
GCTAGCCA | -0.116
GTTACCGA | -0.0867
CTCTATGC | -0.0291
GCAACTAC | 0.0978
CGAGGAGC | -0.0996
AAGTAACC | 0.0184
GCGACAAC | 0.0964
GTACTCCA | -0.0603
GAATTCTA | 0.0732
GAAGTTCC | -0.174
CCAACGAA | -0.0265
CTGAACCC | -0.149
ATCGTATG | 0.0469
CTATAAAA | 0.0227
TAGACCGA | -0.0293
CCTCATTC | -0.0202
ATGCGTCA | 0.169
GCCTAATA | 0.0577
AGACACAC | -0.0816
ATAGCATG | -0.131
GGATAAAA | 0.194
CCACAAGA | 0.0149
CACGACAC | 0.00465

Five records drawn at random from the list so far:
Sequence | PBM E-score
CACGACTA | -0.101
CTGAACCC | -0.149
GTTACCGA | -0.0867
CCACAAGA | 0.0149
TAGAACAA | -0.016

(listing goes on)

Sequence | PBM E-score
CCGGCGGC | -0.308
AGGTGCGC | -0.166
ATGTTGTC | 0.0739
CGAACCCC | -0.257
CCATCAAA | 0.154
CAGATCAA | -0.0848
GCCAAGCA | -0.097
ATAGCCCC | -0.373
CGGTGAAG | -0.194
ACGTCAGA | 0.0127
CTGGACTC | -0.0662
AAGCCTTC | -0.0737
GTATCATA | 0.276
AAGACCCA | -0.163
AGTGGGAT | 0.039
CCTTCCCA | 0.0493
CCAGAAGC | -0.118
TAATCTAA | 0.0858
GATACGGC | -0.214
CTAATACA | 0.25
GCACACGC | -0.0783
AAATAACA | 0.192
CCTTTCGC | 0.0129
CGTTGGTC | -0.00712
CGGGTACA | -0.0532

In another format: results already given
Sequence,PBM E-score
CAGATCAA,-0.0848
CTGGACTC,-0.0662
CCAGAAGC,-0.118
TAATCTAA,0.0858
CGTTGGTC,-0.00712
CGGGTACA,-0.0532

Following part

Sequence | PBM E-score
CGCCCGCG | -0.129
CACCGTAG | -0.209
ACTCCTAT | 0.12
AGAAATTG | 0.266
ACCTTCAA | -0.0244
ACGAGCAC | -0.027
CAAGTCGC | -0.278
CCATCTCA | -0.0297
AATTTTAG | 0.107
AGTGCGGC | -0.165
ATACGCTC | 0.127
CTACTCTC | -0.0538
GGCCTATA | -0.205
CCATCGCA | -0.0895
CATCTGCG | -0.14
CCAGTGGA | -0.192
CCGACAAG | -0.0178
ATATGTGA | 0.186
CCCTCTCC | -0.411
AGTTGAAA | -0.0127
CGTTTTGA | 0.0477
CCAAGAGA | -0.0712
AGATGCGA | 0.0511
CTCCGGGA | -0.255
AGACTCTC | -0.123

Sequence | PBM E-score
CCATTAAC | 0.197
ACATTACT | 0.213
GAGTAATA | 0.273
AAGAAGCC | 0.0666
CGAGATTA | 0.21
TCGTGGAA | 0.245
AGGTTCAA | 0.063
ATAGTAGG | -0.0359
CTTCACAC | 0.105
GTTGAAAC | 0.115
TGGCACAA | -0.046
ATAACTGA | 0.181
CTGTGCGC | -0.102
TACCTAAA | 0.109
GGGCGGAC | -0.335
ACGCTGAA | -0.00885
CACTTGTC | -0.0142
GGGCTTTA | -0.28
CTCGCTGC | -0.0528
AGTCCCGA | -0.283
AAGACCGT | -0.117
GTCCAACA | 0.0985
CTTATGGC | -0.0005
CTAGCCGA | -0.0106
GCGCCTCC | -0.162

Sequence | PBM E-score
TAACTCCA | -0.104
AGTTAGGC | 0.0337
AACGTCAT | 0.0348
ACGTCCGG | -0.167
AGCATCAA | 0.125
GCGGCACA | -0.0765
GACCCGGC | -0.161
ACCTCGGA | 0.0262
AAGCGAGA | -0.0398
ATTTAACC | 0.123
GTTTAGCA | 0.035
AGCAAACG | -0.07
ATGAGCGA | 0.0437
TCTACAGA | -0.141
CACGTTGA | -0.0984
GGTTCGGA | -0.237
ATTTTCGC | 0.0317
CTGGCACA | -0.118
ATGGGATG | -0.013
ACCTAAGG | -0.116
GTCATCAA | 0.129
AACTCAAC | -0.0139
GCCAGGCC | -0.21
CAAATGAC | 0.0524
AATAGCAC | -0.156

Sequence | PBM E-score
GCGTAGTA | -0.0045
ACAACAAA | 0.167
CCTCGGCA | -0.0132
CTCTGGAA | 0.00245
TCCCGGGA | 0.0379
ACTACTTA | 0.0306
CGCTTCGA | 0.00551
CAGACGAA | 0.229
GGCCAGAA | 0.00561
CCGAGATA | 0.0737
CGAGCAAA | -0.0107
AAACCGCG | 0.202
CCACACAC | 0.0798
CCCCTAGA | -0.0743
AGAAATCA | 0.0967
GACGGTCA | -0.181
GGTCTCGA | -0.0349
ACCGAGGC | -0.139
GGCAGCGA | -0.265
GGGATACA | 0.034
ATGGAAAT | 0.215
AACGCGCG | 0.265
